Counter-ions that a name gives are not always drawn. The list shows a part of the results. The calls rarely recur for the same compound in another form.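 Kinases, fused to nanoluciferase, were expressed in K562 cells; luminescence was measured every 4 h from 2 to 18 h as percent of control (DMSO = 100%, positive control = 0%). A time point is decreased if signal falls significantly (2 sigma). Hits were called by the authors by a rule that is not shown; the count of time points alone does not decide it.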

Sequences of proteins named here, by UniProt entry; tags and fusion partners are left off. A change or cut given only in a name is not applied to a line headed by its entry.
UniProt P53667: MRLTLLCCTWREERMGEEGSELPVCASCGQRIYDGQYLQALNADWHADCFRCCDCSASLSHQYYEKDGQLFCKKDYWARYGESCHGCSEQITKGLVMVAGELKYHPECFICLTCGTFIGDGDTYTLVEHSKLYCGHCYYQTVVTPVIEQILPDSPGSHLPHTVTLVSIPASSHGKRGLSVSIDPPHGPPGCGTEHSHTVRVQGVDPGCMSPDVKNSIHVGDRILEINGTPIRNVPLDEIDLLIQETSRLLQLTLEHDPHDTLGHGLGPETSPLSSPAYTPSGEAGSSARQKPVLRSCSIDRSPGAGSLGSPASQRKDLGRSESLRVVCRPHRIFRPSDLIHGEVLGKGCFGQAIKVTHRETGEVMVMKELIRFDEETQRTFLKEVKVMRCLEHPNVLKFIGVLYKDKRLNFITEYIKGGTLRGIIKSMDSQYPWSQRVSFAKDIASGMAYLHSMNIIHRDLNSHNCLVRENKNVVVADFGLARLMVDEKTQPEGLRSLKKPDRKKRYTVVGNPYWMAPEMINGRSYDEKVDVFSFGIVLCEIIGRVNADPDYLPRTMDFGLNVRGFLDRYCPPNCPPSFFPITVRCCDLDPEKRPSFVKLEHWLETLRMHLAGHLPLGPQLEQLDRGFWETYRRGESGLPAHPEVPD

23 compounds from the supplement of paper PMC12823440, “Inhibitors supercharge kinase turnover through native proteolytic circuits” (Nature, 2025) can be followed below.

The experiment has as its target LIMK1 (UniProt P53667). In words: number of time points (of 5) at which kinase-Nluc abundance scored as decreased, DMSO-normalised (count); higher = more persistent destabilization. The note with it: K562; 2-18 h.
Regarding `COCCNc1nc2ccc(C#CC3(O)CCCCC3)cc2n1-c1ccnc(N)n1` (10 µM), the “number of time points” value is 0.
As for `Cc1[nH]c(/C=C2\C(=O)Nc3ccccc32)c(C)c1CCC(=O)O` [Orantinib] (10 µM), the “number of time points” value is 0.
Under `Nc1cc(C(F)(F)F)c(-c2cc(N3CCOCC3)nc(N3CCOCC3)n2)cn1` [Buparlisib (Hydrochloride)] (2.5 µM) stands 0; under `CCN1CCN(Cc2ccc(Nc3ncc(F)c(-c4cc(F)c5nc(C)n(C(C)C)c5c4)n3)nc2)CC1` [Abemaciclib (methanesulfonate)] (10 µM), 0.
Under `Cc1ccc2cc(-c3c(C)ccc(C(=O)c4c(-c5ccccc5)n(C)n(-c5ccccc5)c4=O)c3N)ccc2n1` (2.5 µM) stands 0.
The figure for `FC(F)(c1ccc2ncccc2c1)c1nnc2ccc(-c3ccncc3)nn12` (10 µM) is 0; for `O=C1N[C@@H](Cc2c[nH]c3ccccc23)C(=O)N2CCC[C@@H]12` [Brevianamide F] (10 µM) it is 0; for `Cc1nc2sccn2c(=O)c1CCN1CCC(=C(c2ccccc2)c2ccc(F)cc2)CC1` (10 µM) it is 0.
For `O=c1[nH]c(=O)n([C@@H]2O[C@H](CO)[C@@H](O)[C@@H]2O)cc1/C=C/Br` [Sorivudine] (10 µM), the “number of time points” value is 0.
With `COc1cc2nccc(Oc3ccc(NC(=O)NC4CC4)c(Cl)c3)c2cc1C(N)=O` [Lenvatinib (mesylate)] (10 µM), the “number of time points” value worked out at 0.
The figure for `CN1C(=O)N[C@H](Cc2c[nH]c3c(Cl)cccc23)C1=O` [Necrostatin 2] (10 µM) is 0.
The figure for `CCN1CCN(Cc2ccc(Nc3ncc(F)c(-c4cc(F)c5nc(C)n(C(C)C)c5c4)n3)nc2)CC1` [Abemaciclib] (2 µM) is 0; for `Cc1ccc2nc(NCCN)c3ncc(C)n3c2c1` (2.5 µM) it is 0; for `CNC(=O)c1c(F)cccc1Nc1nc(Nc2cc3c(cc2OC)CCN3C(=O)CN(C)C)nc2[nH]ccc12` (10 µM) it is 0.
As to `Cn1nccc1Nc1nccc(-c2ccn([C@H](CO)c3ccc(Cl)c(F)c3)c(=O)c2)n1` [Ravoxertinib hydrochloride] (10 µM), the “number of time points” value was found to be 0.
The figure for `CN(C)CCSSCCNC(=O)C1CCN(C(=O)CSc2ccc(Cl)cc2)CC1` (10 µM) is 0; for `CNC(=O)c1cc(COc2nnc(Nc3ccc(Cl)cc3)c3ccoc23)ccn1` [Telatinib] (10 µM) it is 0.
The figure for `NCCNS(=O)(=O)c1cccc2c(Cl)cccc12` [A-3 (hydrochloride)] (10 µM) is 0; for `O=C(Nc1ccc(CN2CCOCC2)cc1)c1ccc(-c2cccc(Cl)c2)o1` (10 µM) it is 0.
Under `CCN1CCN(Cc2ccc(-c3cc4c(N[C@H](C)c5ccccc5)ncnc4[nH]3)cc2)CC1` (2.5 µM) stands 4; under `COc1cccc(OC)c1C(=O)OCc1cc(O)ccc1O[C@@H]1O[C@H](CO)[C@@H](O)[C@H](O)[C@H]1O` [Curculigoside] (10 µM), 0.
Turning to `Nc1ncnc2c1c(-c1ccc(Oc3ccccc3)cc1)nn2C1CCCC1` (2.5 µM), the “number of time points” value was 0.
Under `CC#CC(=O)N1CC[C@@H](n2c(=O)n(-c3ccc(Oc4ccccc4)cc3)c3c(N)ncnc32)C1` [Tirabrutinib] (10 µM) stands 0.
